Tested on: HLA-A*02
Assay: Identification and relative LC-MS quantitation of HLA-A*02-presented tumor-associated peptides on tissue samples (presentation profiles, Tables 13A, 13B, 15, FIG. 1)
Design: species or system human; key to Presentation score NHL / Presentation score CLL / Presentation score BRCA / Presentation score AML / Presentation score GB / Presentation score NSCLC / Presentation score GBC_CCC / Presentation score UEC / Presentation score MEL / Presentation score OSCAR / Presentation score GC / Presentation score UBC / Presentation score OC / Presentation score RCC / Presentation score CRC / Presentation score PCA / Presentation score HCC / Presentation score PC / Presentation score SCLC: specifically presented on tumors (++++); very highly over-presented on tumors compared to a panel of normal tissues (+++); highly over-presented on tumors compared to a panel of normal tissues (++); over-presented on tumors compared to a panel of normal tissues (+)
Details: for Presentation score AML: acute myeloid leukemia (N = 18) vs panel of normal tissues (N = 262); for Presentation score BRCA: breast cancer (N = 17) vs panel of normal tissues (N = 262); for Presentation score NHL: non-Hodgkin lymphoma (N = 18) vs panel of normal tissues (N = 262); for Peptide Presentation on cancer entities: HLA-A*02-binding tumor-associated peptides; for Presentation score OSCAR: esophageal cancer, including cancer of the gastric-esophageal junction (N = 17) vs panel of normal tissues (N = 262); for Presentation score GC: gastric cancer (N = 29) vs panel of normal tissues (N = 262); for Presentation score NSCLC: non-small cell lung cancer (N = 90) vs panel of normal tissues (N = 262); for Presentation score OC: ovarian cancer (N = 20) vs panel of normal tissues (N = 262); for Presentation score CLL: chronic lymphocytic leukemia (N = 17) vs panel of normal tissues (N = 262); for Presentation score CRC: colorectal cancer (N = 28) vs panel of normal tissues (N = 262); for Presentation score UBC: urinary bladder cancer (N = 16) vs panel of normal tissues (N = 262)
[1] = Table 13A, cancer entities on which the peptide was found presented
[2] = Table 13B, presentation on additional cancer entities

Substance	Presentation score NHL (HLA-A*02 peptides)	Peptide Presentation on cancer entities [1]	Peptide Presentation on cancer entities [2]	Presentation score OSCAR (HLA-A*02 peptides)	Presentation score GC (HLA-A*02 peptides)	Presentation score NSCLC (HLA-A*02 peptides)	also measured
26 (ALQEELTEL; listed as Homo sapiens) [compound 26]	++++	BRCA, GBC_CCC, MEL, AML, NHL	NSCLC, CRC, HNSCC				Presentation score AML (HLA-A*02 peptides): ++++; Presentation score BRCA (HLA-A*02 peptides): ++++; Presentation score GBC_CCC (HLA-A*02 peptides, gallbladder adenocarcinoma and cholangiocarcinoma (N = 6) vs panel of normal tissues (N = 262)): ++++; Presentation score MEL (HLA-A*02 peptides, melanoma (N = 7) vs panel of normal tissues (N = 262)): ++++
87 (TIYKDFVYI; listed as Homo sapiens) [compound 87]		GC, NSCLC, OSCAR		++++	++++	++++	
136 (FLFGGVLMTL; listed as Homo sapiens) [compound 136]	++++	OC, NHL					Presentation score OC (HLA-A*02 peptides): ++++
108 (ILLKNLVTI; listed as Homo sapiens) [compound 108]		BRCA					Presentation score BRCA (HLA-A*02 peptides): ++++
266 (YAIGLVMRL; listed as Homo sapiens) [compound 266]		CLL, BRCA, AML	HCC, GBC_CCC, MEL				Presentation score AML (HLA-A*02 peptides): +++; Presentation score CLL (HLA-A*02 peptides): +
128 (TQSPATLSV; listed as Homo sapiens) [compound 128]		GC, OSCAR		++++	++++		
68 (SLSNRLYYL; listed as Homo sapiens) [compound 68]		GC, OSCAR, CRC		++++	++++		Presentation score CRC (HLA-A*02 peptides): ++++
82 (FIFDEAEKL; listed as Homo sapiens) [compound 82]		GC, NSCLC, OSCAR		++++	++++	++++	
261 (QLQDRVYAL; listed as Homo sapiens) [compound 261]	+	NSCLC, HCC, CLL, OSCAR, OC, SCLC, UBC, BRCA, RCC, CRC, NHL	MEL			+	Presentation score CRC (HLA-A*02 peptides): +; Presentation score OC (HLA-A*02 peptides): +
122 (GVVDPVHGV; listed as Homo sapiens) [compound 122]		GC, NSCLC, OSCAR		++++	++++	++++	
144 (ALLAFFPGL; listed as Homo sapiens) [compound 144]		GB, GC, NSCLC, OSCAR, OC, UBC, BRCA, MEL, CRC, PC, AML, NHL		+++	++	++	Presentation score AML (HLA-A*02 peptides): +++; Presentation score BRCA (HLA-A*02 peptides): +; Presentation score CRC (HLA-A*02 peptides): +; Presentation score GB (HLA-A*02 peptides, glioblastoma (N = 41) vs panel of normal tissues (N = 262)): +++
96 (LLVSHLYLV; listed as Homo sapiens) [compound 96]	+++	NSCLC, CLL, OC, UBC, NHL	UEC, CRC, HNSCC			+	Presentation score CLL (HLA-A*02 peptides): +++; Presentation score UBC (HLA-A*02 peptides): +++
10 (GIAGSLKTV; listed as Homo sapiens) [compound 10]		NSCLC, OSCAR, UBC, UEC, CRC, AML	SCLC, MEL, AML			+	Presentation score AML (HLA-A*02 peptides): ++; Presentation score UEC (HLA-A*02 peptides, uterine cancer (N = 15) vs panel of normal tissues (N = 262)): +
130 (SLLGGTFVGI; listed as Homo sapiens) [compound 130]		UBC	HCC				Presentation score UBC (HLA-A*02 peptides): ++++
20 (GLSQITNQL; listed as Homo sapiens) [compound 20]	++++	CLL, UBC, NHL	MEL, AML				Presentation score CLL (HLA-A*02 peptides): ++++; Presentation score UBC (HLA-A*02 peptides): ++++
244 (YLLEKNRVV; listed as Homo sapiens) [compound 244]		NSCLC, OSCAR, OC	HNSCC	++++		++++	Presentation score OC (HLA-A*02 peptides): ++++
